According to article PMC13423832:
These are yes or no findings as the source states them, for the method shown. Binding calls can cover weak binding; strength is not graded here. For part of these data: Sequences can lack the tags named with a protein. For part of these data: In cells and extracts the contact can be indirect.

Protein sequences, listed by entry. Tags and fused reporters are not part of them. Lines headed by an entry give the natural chain unless they say otherwise; changes in a name come on top.
UniProt P20674: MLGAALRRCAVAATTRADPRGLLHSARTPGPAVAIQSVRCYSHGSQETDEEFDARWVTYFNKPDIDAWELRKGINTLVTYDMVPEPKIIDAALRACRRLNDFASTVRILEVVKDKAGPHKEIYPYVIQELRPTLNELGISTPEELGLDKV
UniProt Q9NQC3: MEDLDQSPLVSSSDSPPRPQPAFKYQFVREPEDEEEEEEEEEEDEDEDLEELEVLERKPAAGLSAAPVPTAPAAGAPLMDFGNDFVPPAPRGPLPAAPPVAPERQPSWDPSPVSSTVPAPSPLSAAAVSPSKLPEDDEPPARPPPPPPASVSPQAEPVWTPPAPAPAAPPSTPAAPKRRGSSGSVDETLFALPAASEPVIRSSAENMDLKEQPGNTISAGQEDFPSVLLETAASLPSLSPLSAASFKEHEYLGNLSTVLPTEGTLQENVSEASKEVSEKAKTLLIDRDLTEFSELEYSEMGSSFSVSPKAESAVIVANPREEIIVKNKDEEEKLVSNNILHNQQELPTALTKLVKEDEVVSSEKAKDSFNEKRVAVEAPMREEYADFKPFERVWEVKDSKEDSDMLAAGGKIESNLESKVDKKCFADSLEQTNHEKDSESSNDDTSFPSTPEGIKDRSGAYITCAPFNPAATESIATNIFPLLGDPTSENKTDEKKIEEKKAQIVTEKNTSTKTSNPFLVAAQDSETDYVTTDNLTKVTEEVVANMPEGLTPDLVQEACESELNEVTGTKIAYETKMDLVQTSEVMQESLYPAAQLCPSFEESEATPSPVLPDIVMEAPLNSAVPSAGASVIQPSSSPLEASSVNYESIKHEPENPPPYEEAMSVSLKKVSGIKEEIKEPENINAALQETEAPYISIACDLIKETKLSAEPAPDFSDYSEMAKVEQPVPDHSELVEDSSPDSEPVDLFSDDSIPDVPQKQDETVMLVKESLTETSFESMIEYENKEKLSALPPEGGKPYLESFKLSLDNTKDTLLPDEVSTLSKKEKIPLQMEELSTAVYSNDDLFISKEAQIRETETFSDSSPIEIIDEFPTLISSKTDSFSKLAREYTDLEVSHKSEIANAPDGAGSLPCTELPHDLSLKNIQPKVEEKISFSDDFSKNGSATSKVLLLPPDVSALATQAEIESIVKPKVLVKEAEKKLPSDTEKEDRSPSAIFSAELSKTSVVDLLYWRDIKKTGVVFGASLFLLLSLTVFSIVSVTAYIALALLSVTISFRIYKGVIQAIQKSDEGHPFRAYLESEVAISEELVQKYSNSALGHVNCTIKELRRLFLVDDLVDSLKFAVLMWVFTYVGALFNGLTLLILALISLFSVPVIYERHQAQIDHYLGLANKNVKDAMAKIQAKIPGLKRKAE

Legend:
[1] = biological target: T1, RTNR-FLAG-His (Nogo66 receptor) on HEK293T cells (UniProt Q9BZR6); experiment: alkaline phosphatase (AP) fusion protein binding to cells; 100 nM purified AP fusion protein in HBAH buffer (pH 7.45) on HEK293T cells stably expressing RTNR-FLAG-His, 4 °C, 3 h; five washes; cells lysed, heated at 65 °C, bound heat-stable AP activity read with p-NPP at 405 nm; AP fusion proteins also pre-treated with asciminib (10 uM, 15 min); only the binder purified
T1 sequence: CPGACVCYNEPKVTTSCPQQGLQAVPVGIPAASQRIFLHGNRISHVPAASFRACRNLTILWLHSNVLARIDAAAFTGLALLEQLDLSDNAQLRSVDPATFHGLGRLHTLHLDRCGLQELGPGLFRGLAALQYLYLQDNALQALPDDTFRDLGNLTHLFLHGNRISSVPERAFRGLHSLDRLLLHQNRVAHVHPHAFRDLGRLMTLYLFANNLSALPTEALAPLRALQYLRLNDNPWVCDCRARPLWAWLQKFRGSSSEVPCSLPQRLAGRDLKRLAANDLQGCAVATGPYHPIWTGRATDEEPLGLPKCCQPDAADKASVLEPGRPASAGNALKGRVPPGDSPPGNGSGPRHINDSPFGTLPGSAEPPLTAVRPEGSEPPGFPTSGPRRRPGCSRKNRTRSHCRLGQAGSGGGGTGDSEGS

COX5A-FLAG, wild type = COX5A-FLAG, wild type (UniProt P20674); experiment: co-IP; FLAG immunoprecipitation from lysates (0.3% CHAPS in PBS) of HEK293T transiently overexpressing FLAG-tagged GFP, wild-type or mutant COX5A; cells untreated or treated with asciminib (10 uM, 1 h) with or without UV; blot for PMPCB
D81W-COX5A-FLAG = D81W-COX5A-FLAG (UniProt P20674); experiment: as above
T79G-COX5A-FLAG = T79G-COX5A-FLAG (UniProt P20674); experiment: as above
T79W-COX5A-FLAG = T79W-COX5A-FLAG (UniProt P20674); experiment: as above
Y80W-COX5A-FLAG = Y80W-COX5A-FLAG (UniProt P20674); experiment: as above

Measured: binding

AP-Nogo66-His, wild type (alkaline phosphatase fusion of the NOGO66 domain of reticulon-4) (from UniProt Q9NQC3) (domain or fragment)
binds: [1]

B1: PMPCB, beta subunit of the mitochondrial-processing peptidase (enzyme, UniProt O75439 44-489)
chain: STQAATQVVLNVPETRVTCLESGLRVASEDSGLSTCTVGLWIDAGSRYENEKNNGTAHFLEHMAFKGTKKRSQLDLELEIENMGAHLNAYTSREQTVYYAKAFSKDLPRAVEILADIIQNSTLGEAEIERERGVILREMQEVETNLQEVVFDYLHATAYQNTALGRTILGPTENIKSISRKDLVDYITTHYKGPRIVLAAAGGVSHDELLDLAKFHFGDSLCTHKGEIPALPPCKFTGSEIRVRDDKMPLAHLAIAVEAVGWAHPDTICLMVANTLIGNWDRSFGGGMNLSSKLAQLTCHGNLCHSFQSFNTSYTDTGLWGLYMVCESSTVADMLHVVQKEWMRLCTSVTESEVARARNLLKTNMLLQLDGSTPICEDIGRQMLCYNRRIPIPELEARIDAVNAETIREVCTKYIYNRSPAIAAVGPIKQLPDFKQIRSNMCWLRD
not listed: [1]
binds: all other assays above
